# Experimental data from paper doi:10.1101/2025.09.11.675134 (bioRxiv, 2025).
# Test: general procedure: Fmoc solid-phase peptide synthesis; O-t-Butyl-L-threonine-2-chlorotrityl resin; HBTU
# Conditions: late stage modification step
Substance,step yield,final HPLC purity (220 nm)
DOTA-β-Gal-TATE [DOTA-β-Gal-TATE],45%,>95%
DOTA-β-Glu-TATE,40%,
